Results are given in words; binding and its absence hold for the method and conditions named. In cells and extracts the contact can be indirect. Some binding calls cover weakened binding; strength is not graded here.

For one assay, the target named is GFP-tagged SIRT6 (UniProt Q8N6T7). The assay is described as follows: co-IP; HCT116 cells co-transfected with GFP-SIRT6 and FLAG-p53, with or without 0.2 mM palmitic acid for 18 h; IP with anti-FLAG or anti-GFP, blot with anti-GFP or anti-FLAG.
For assay [1], the target named is SIRT6 (endogenous) (human (endogenous in HCT116)) (UniProt Q8N6T7). The assay can be described thus: co-IP; endogenous proteins of HCT116 cells, with or without 0.2 mM palmitic acid for 18 h; IP with anti-SIRT6, blot with anti-p53 or anti-RNAP II.

On to “FLAG-tagged p53 (from UniProt P04637 1-393)”, for which, in the assay with GFP-tagged SIRT6, the binding entry is listed as “binds”.

For “p53 (endogenous) (from UniProt P04637 1-393)”, the binding result in assay [1] is given as “binds”.

The values are drawn from article PMC6148051.
